Publication PMC5780493, “Epsin and Sla2 form assemblies through phospholipid interfaces” (Nature Communications, 2018)
These are yes or no findings as the source states them, for the method shown. Some entries that bind do so weakly or less than the wild type.

Target: ENTH domain of epsin Ent1 from S. cerevisiae (S. cerevisiae) (UniProt Q12518)
Test: crystal structure; ENTH1 11 mg/ml; 0.2 M CaCl2, 25% v/v MPD, 0.1 M Tris pH 8.5; no PIP2, an MPD molecule displaces the α0 helix; both purified

binding: binds
B1: ENTH domain of epsin Ent1 from S. cerevisiae (domain or fragment, UniProt Q12518 1-154)
chain: MSKQFVRSAKNLVKGYSSTQVLVRNATSNDNHQVSKDSLIELAEKSYDSADFFEIMDMLDKRLNDKGKYWRHIAKALTVIDYLIRFGSENCVLWCRENLYIIKTLKEFRHEDDEGIDQGQIVRVKAKELTALLSDDERLNEERNMNIKGRNRKG
